Assay results: publication PMC11183095
These are yes or no findings as the source states them, for the method shown. In cells and extracts the contact can be indirect.

Chains of the proteins cited; added tags and fusions are not shown.
UniProt P18669: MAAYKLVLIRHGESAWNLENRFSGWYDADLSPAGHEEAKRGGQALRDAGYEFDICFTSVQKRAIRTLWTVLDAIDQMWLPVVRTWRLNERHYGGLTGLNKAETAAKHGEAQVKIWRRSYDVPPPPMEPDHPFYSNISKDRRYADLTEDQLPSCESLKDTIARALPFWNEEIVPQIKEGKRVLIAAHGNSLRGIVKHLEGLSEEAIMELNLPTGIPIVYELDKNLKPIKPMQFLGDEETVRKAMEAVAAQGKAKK

Biological target: Phosphoglycerate mutase 1 (PGAM1), endogenous (human (endogenous in A549)) (UniProt P18669)
Assay: co-IP; anti-PGAM1 immunoprecipitation from whole-cell lysates of A549 (also H1299, MCF-7, MDA-MB-231, AGS, Jurkat tumour cells; with or without EGF), western blot; IgG as negative control

B1: Phosphoenolpyruvate carboxykinase PCK2, endogenous (enzyme, UniProt Q16822 33-640)
chain: LSGDLGQLPTGIRDFVEHSARLCQPEGIHICDGTEAENTATLTLLEQQGLIRKLPKYNNCWLARTDPKDVARVESKTVIVTPSQRDTVPLPPGGARGQLGNWMSPADFQRAVDERFPGCMQGRTMYVLPFSMGPVGSPLSRIGVQLTDSAYVVASMRIMTRLGTPVLQALGDGDFVKCLHSVGQPLTGQGEPVSQWPCNPEKTLIGHVPDQREIISFGSGYGGNSLLGKKCFALRIASRLARDEGWLAEHMLILGITSPAGKKRYVAAAFPSACGKTNLAMMRPALPGWKVECVGDDIAWMRFDSEGRLRAINPENGFFGVAPGTSATTNPNAMATIQSNTIFTNVAETSDGGVYWEGIDQPLPPGVTVTSWLGKPWKPGDKEPCAHPNSRFCAPARQCPIMDPAWEAPEGVPIDAIIFGGRRPKGVPLVYEAFNWRHGVFVGSAMRSESTAAAEHKGKIIMHDPFAMRPFFGYNFGHYLEHWLSMEGRKGAQLPRIFHVNWFRRDEAGHFLWPGFGENARVLDWICRRLEGEDSARETPIGLVPKEGALDLSGLRAIDTTQLFSLPKDFWEQEVRDIRSYLTEQVNQDLPKEVLAELEALERRVHKM
binding: no binding
